Test results: the supplement of paper PMC10849652
The other results are listed elsewhere or left out. Residues, ends and D or L forms follow the SMILES beside them. *: point of attachment. Cbz = O=C(OCc1ccccc1)*

Chains of the proteins cited; added tags and fusions are not shown. Lines headed by an entry give the natural chain unless they say otherwise; changes in a name come on top.
UniProt Q08722, whole entry, looked up: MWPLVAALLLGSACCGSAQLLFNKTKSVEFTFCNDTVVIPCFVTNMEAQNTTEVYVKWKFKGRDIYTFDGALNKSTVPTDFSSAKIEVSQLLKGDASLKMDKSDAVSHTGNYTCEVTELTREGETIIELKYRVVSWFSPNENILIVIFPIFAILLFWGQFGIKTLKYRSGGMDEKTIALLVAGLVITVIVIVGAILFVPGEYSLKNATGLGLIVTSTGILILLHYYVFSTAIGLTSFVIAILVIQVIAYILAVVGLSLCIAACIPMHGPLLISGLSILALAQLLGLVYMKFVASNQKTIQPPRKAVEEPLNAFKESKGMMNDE
UniProt Q6P4E1: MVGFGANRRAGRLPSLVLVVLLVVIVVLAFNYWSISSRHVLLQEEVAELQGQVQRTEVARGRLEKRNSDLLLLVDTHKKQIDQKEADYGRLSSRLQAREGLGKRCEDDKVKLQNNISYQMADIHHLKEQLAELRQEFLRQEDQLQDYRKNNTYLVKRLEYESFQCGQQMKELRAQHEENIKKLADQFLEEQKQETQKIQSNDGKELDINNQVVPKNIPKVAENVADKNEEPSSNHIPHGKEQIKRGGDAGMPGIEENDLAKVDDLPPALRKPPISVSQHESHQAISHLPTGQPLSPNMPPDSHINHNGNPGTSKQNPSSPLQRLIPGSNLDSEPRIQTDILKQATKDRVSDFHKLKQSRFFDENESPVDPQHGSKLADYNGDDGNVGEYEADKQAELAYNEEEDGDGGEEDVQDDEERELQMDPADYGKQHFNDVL
UniProt Q13191, whole entry, looked up: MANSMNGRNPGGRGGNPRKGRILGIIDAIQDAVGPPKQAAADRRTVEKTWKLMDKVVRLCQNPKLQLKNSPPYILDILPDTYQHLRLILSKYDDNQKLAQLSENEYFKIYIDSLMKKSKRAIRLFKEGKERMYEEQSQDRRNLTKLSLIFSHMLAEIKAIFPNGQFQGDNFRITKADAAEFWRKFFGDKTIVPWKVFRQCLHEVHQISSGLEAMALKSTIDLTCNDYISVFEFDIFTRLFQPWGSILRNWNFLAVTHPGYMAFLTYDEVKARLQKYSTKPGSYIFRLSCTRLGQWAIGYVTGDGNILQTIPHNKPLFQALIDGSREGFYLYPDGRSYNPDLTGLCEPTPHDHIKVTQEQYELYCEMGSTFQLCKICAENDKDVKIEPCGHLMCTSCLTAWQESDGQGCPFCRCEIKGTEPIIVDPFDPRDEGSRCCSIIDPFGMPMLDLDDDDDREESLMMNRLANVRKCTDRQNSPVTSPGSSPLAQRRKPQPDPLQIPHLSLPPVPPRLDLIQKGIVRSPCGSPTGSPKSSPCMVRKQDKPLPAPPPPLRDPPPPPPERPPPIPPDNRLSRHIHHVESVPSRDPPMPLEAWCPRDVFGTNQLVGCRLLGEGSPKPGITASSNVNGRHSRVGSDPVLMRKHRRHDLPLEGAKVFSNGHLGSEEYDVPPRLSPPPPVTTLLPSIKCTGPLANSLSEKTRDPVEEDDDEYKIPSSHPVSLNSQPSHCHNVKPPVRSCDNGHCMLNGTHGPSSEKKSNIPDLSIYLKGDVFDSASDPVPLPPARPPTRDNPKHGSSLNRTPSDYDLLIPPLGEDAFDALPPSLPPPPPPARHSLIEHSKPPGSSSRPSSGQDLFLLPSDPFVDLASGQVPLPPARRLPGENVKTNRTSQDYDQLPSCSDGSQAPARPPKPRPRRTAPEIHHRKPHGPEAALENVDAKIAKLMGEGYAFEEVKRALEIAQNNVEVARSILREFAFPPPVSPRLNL
UniProt O95810: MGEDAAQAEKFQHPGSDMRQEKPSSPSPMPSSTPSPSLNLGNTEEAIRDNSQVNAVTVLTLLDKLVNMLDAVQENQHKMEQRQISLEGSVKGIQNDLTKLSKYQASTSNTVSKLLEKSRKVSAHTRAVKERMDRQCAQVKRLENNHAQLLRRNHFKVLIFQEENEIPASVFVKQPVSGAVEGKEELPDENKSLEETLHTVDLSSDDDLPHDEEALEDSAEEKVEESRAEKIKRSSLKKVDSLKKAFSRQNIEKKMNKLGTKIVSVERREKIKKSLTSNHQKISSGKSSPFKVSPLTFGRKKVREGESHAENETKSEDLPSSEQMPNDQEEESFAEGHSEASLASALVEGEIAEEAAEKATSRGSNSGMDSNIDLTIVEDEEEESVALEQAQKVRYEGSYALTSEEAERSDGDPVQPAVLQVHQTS
UniProt Q9ULG6: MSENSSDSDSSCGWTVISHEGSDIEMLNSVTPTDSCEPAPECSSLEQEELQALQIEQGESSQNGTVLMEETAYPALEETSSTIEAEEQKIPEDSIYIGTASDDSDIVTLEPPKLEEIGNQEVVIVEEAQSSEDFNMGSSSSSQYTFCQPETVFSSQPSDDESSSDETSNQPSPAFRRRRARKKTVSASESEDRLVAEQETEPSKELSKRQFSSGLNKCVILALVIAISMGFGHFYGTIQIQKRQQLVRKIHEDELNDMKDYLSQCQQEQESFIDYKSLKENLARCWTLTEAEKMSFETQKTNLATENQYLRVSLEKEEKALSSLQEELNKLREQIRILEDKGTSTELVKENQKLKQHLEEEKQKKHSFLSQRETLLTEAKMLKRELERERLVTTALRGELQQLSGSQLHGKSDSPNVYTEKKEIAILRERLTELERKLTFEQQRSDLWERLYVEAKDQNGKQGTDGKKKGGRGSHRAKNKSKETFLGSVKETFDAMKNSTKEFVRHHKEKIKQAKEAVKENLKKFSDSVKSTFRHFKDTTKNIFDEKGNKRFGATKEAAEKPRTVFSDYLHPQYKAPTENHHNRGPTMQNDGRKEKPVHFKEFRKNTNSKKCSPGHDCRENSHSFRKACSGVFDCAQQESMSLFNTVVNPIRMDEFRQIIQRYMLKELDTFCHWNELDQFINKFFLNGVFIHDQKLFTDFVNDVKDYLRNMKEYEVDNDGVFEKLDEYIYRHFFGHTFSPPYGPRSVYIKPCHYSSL
UniProt Q96ER9: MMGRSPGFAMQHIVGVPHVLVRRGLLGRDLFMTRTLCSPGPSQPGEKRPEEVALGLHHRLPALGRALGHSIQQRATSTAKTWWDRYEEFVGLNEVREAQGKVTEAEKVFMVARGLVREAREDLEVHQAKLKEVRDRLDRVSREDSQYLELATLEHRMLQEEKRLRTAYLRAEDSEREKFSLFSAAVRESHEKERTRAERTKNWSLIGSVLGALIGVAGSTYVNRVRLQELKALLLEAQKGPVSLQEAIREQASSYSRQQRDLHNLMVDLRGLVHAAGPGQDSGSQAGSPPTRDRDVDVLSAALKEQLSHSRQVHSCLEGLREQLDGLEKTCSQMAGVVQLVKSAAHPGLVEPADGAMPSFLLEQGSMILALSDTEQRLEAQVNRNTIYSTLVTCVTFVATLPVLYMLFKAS
UniProt P30260, whole entry, looked up: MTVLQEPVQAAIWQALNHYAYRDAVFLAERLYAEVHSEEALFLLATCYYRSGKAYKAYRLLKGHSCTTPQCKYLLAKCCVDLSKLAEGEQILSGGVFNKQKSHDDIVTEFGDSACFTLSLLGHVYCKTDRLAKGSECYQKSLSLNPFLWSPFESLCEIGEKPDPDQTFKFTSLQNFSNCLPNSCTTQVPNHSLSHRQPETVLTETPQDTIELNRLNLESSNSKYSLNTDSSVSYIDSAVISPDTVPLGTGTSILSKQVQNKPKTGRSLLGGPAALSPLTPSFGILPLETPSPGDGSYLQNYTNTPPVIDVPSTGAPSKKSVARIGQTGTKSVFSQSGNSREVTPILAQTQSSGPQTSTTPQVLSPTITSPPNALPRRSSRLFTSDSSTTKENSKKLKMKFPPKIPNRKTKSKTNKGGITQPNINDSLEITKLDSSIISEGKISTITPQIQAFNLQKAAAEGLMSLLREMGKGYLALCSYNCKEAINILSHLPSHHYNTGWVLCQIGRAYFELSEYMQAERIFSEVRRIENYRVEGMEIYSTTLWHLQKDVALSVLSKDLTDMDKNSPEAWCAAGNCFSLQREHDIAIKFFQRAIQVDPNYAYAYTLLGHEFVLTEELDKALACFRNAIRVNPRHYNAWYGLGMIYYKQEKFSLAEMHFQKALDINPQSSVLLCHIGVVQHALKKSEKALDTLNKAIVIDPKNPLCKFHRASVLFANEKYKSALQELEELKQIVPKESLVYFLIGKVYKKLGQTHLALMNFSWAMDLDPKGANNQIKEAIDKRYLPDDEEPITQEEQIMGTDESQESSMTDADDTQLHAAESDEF
UniProt P50991: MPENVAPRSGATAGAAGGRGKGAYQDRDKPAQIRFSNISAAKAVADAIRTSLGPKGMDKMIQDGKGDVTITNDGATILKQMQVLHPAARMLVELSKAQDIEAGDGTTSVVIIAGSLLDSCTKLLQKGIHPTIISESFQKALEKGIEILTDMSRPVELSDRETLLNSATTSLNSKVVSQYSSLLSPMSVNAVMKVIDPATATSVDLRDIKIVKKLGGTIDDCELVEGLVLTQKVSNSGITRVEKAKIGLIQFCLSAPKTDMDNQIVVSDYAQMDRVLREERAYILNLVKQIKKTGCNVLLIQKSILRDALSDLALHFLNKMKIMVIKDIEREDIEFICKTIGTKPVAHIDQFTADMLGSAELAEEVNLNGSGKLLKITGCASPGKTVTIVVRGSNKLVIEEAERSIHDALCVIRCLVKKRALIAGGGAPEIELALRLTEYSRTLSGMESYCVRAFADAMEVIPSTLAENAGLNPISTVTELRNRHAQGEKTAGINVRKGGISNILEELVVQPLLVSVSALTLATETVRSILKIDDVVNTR
UniProt Q3V6T2: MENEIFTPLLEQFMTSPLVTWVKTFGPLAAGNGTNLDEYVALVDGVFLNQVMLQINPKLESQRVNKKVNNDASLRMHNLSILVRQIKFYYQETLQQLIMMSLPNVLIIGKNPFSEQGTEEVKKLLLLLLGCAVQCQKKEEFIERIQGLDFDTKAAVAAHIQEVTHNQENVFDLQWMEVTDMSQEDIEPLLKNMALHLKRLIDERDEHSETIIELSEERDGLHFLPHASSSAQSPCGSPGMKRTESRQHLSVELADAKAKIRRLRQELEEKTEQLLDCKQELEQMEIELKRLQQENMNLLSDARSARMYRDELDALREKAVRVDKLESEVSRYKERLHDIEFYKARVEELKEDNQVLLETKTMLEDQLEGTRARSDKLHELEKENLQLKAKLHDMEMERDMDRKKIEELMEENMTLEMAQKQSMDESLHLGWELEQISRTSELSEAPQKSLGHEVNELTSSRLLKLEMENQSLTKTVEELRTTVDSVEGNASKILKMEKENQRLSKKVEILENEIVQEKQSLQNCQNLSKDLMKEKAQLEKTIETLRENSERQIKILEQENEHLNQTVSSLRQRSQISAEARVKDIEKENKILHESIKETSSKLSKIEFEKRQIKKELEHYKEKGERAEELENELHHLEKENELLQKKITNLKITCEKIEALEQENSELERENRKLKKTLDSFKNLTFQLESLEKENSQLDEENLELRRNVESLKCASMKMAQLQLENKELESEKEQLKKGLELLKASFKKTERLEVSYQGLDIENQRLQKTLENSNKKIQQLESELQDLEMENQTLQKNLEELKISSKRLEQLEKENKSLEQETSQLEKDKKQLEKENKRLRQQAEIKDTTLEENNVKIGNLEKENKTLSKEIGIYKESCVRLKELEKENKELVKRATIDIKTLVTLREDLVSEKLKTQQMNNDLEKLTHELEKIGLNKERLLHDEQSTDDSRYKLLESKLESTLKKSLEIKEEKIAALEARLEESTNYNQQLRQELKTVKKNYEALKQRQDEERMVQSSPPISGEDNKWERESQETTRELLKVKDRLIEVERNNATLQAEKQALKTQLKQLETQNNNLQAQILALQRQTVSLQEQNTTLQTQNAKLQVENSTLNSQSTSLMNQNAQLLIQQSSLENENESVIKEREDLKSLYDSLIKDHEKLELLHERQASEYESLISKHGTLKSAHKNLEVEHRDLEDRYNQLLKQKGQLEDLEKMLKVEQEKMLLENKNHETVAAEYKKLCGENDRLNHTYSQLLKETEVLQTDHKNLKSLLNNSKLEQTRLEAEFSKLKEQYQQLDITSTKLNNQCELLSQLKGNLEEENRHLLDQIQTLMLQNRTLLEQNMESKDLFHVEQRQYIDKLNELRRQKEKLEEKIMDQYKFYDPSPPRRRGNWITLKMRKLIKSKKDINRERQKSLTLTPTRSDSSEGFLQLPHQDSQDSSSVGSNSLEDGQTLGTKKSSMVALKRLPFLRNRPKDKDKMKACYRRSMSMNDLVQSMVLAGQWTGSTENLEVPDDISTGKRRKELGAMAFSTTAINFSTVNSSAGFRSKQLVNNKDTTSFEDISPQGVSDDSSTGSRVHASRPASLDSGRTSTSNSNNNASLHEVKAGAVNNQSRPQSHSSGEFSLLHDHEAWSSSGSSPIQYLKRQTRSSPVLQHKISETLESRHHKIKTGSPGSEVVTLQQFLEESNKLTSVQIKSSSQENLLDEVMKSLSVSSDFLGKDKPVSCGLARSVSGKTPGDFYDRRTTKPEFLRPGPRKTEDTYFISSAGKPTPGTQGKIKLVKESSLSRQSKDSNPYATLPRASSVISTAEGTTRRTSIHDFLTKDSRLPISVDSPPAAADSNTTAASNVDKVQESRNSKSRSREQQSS

Assays:
Test in all cases: log2 fold change, soluble protein after heating vs DMSO (PISA); higher = thermal stabilisation; K562 cells, 10 uM, 30 min; active = over 0.2 and 3.5 SD of the protein, either way, in both replicates (recomputed)
IRAK-1-4 Inhibitor I = compound: C1COCCN1CCN2C3=CC=CC=C3N=C2NC(=O)C4=CC(=CC=C4)[N+](=O)[O-] [IRAK-1-4 Inhibitor I]
Method in brief: (§1)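 Aliquots of K562 cells (2×10^6 cells/mL) treated with 10 μM compound for 30 min were heated for 3 min over 48°C-58°C. After pooling and extraction in PBS with 0.5% NP-40 at 4°C, soluble protein from a 21,000xg, 90 min spin was quantified by TMTpro 16plex LC-MS/MS with channel sums equalised. Thermal stability is expressed against control samples, from duplicates, as a log2 fold change.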

ibrutinib = compound: C=CC(=O)N1CCC[C@@H](n2nc(-c3ccc(Oc4ccccc4)cc3)c3c(N)ncnc32)C1 [ibrutinib]
Method in brief: as §1

[1] = compound: CC(=O)c1cnc2ccc(-c3cc(Cl)c(O)c(Cl)c3)nc2c1N[C@H]1CC[C@H](CN(C)C)CC1
Method in brief: as §1

ralimetinib = compound: CC(C)(C)Cn1c(N)nc2ccc(-c3[nH]c(C(C)(C)C)nc3-c3ccc(F)cc3)nc21 [ralimetinib]
Method in brief: as §1

[2] = compound: CC(C)(O)CC(=O)NCCn1ccc2ncnc(Nc3ccc(Oc4cccc(C(F)(F)F)c4)c(Cl)c3)c21
Method in brief: as §1

[3] = compound: CC(C)C1=C2N=C(C=C(N2N=C1)NCC3=CC=CC=C3)NCCCCCCN
Method in brief: as §1

[4] = compound: CC(C)C[C@@H](C=O)NC(=O)[C@H](CC(C)C)NC(=O)[C@H](CC(C)C)NC(=O)OCc1ccccc1
Method in brief: as §1

pinometostat = compound: CC(C)N(C[C@H]1O[C@@H](n2cnc3c(N)ncnc32)[C@H](O)[C@@H]1O)[C@H]1C[C@@H](CCc2nc3cc(C(C)(C)C)ccc3[nH]2)C1 [pinometostat]
Method in brief: as §1

[5] = compound: CC1=C(C(CC(=O)N1)C2=CC=C(C=C2)C(F)(F)F)C(=O)NC3=C(C=C4C(=C3)C=NN4)F
Method in brief: as §1

[6] = compound: CC1=C(C2=C(C=C1)C(=O)C3=CC=CC=C3N2CCCN)C
Method in brief: as §1

[7] = compound: CC1=C(C=C(C=C1)NC(=O)C2=CC(=CC=C2)C(C)(C)C#N)NC3=CC4=C(C=C3)N=CN(C4=O)C
Method in brief: as §1

[8] = compound: CC1=C(C=C(C=C1)NC(=O)C2=CC(=CC=C2)N(C)C)NC(=O)C3=CC=C(C=C3)O
Method in brief: as §1

[9] = compound: CC1=CC=C(C=C1)SC2=C3C=C(SC3=CN=C2)C(=O)N
Method in brief: as §1

[10] = compound: CC1=NC(=CC=C1)C2=C(N=C(N2)C(C)(C)C)C3=CC4=NC=CN=C4C=C3
Method in brief: as §1

Nexturastat A = compound: CCCCN(Cc1ccc(C(=O)NO)cc1)C(=O)Nc1ccccc1 [Nexturastat A]
Method in brief: as §1

vemurafenib = compound: CCCS(=O)(=O)Nc1ccc(F)c(C(=O)c2c[nH]c3ncc(-c4ccc(Cl)cc4)cc23)c1F [vemurafenib]
Method in brief: as §1

[11] = compound: CCCS(=O)(=O)Nc1ccc(F)c(C(=O)c2c[nH]c3ncc(Cl)cc23)c1F
Method in brief: as §1

[12] = compound: CCCc1cc(C)[nH]c(=O)c1CNC(=O)c1cc(-c2ccnc(N3CCN(C)CC3)c2)cc2c1cnn2C(C)C
Method in brief: as §1

givinostat = compound: CCN(CC)Cc1ccc2cc(COC(=O)Nc3ccc(C(=O)NO)cc3)ccc2c1 [givinostat]
Method in brief: as §1

barasertib = compound: CCN(CCCOc1ccc2c(Nc3cc(CC(=O)Nc4cccc(F)c4)[nH]n3)ncnc2c1)CCOP(=O)(O)O [barasertib]
Method in brief: as §1

Measured: log2 fold change

CD47 (UniProt Q08722)
inactive: IRAK-1-4 Inhibitor I -0.006 | ibrutinib 0.006 | [1] 0.003 | ralimetinib 0.017 | [2] 0.005 | [3] 0.113 | [4] -0.006 | pinometostat -0.044 | [5] 0.006 | [6] 0.004 | [7] -0.011 | [8] 0.016 | [9] -0.016 | [10] -0.086 | Nexturastat A -0.015 | vemurafenib 0.003 | [11] -0.024 | [12] -0.004 | givinostat 0.04 | barasertib -0.006

CASC4 (UniProt Q6P4E1)
inactive: IRAK-1-4 Inhibitor I -0.004 | ibrutinib 0.005 | [1] -0.01 | ralimetinib 0.005 | [2] 0.027 | [3] 0.01 | [4] 0.017 | pinometostat -0.011 | [5] -0.011 | [6] -0.025 | [7] 0.002 | [8] -0.014 | [9] -0.005 | [10] -0.008 | Nexturastat A -0.088 | vemurafenib -0.02 | [11] -0.086 | [12] -0.064 | givinostat 0.054 | barasertib 0.019

CDC37 (UniProt Q16543)
inactive: IRAK-1-4 Inhibitor I 0.005 | ibrutinib -0.049 | [1] 0.018 | ralimetinib -0.032 | [2] -0.022 | [3] 0.01 | [4] -0.035 | pinometostat -0.035 | [5] -0.019 | [6] -0.039 | [7] 0.022 | [8] 0.014 | [9] -0.049 | [10] 0.023 | Nexturastat A -0.068 | vemurafenib 0.03 | [11] -0.029 | [12] 0.006 | givinostat -0.03 | barasertib 0.004

CCDC86 (UniProt Q9H6F5)
inactive: IRAK-1-4 Inhibitor I -0.224 | ibrutinib 0.004 | [1] 0.28 | ralimetinib 0.099 | [2] 0.009 | [3] -0.01 | [4] 0.166 | pinometostat 0.191 | [5] -0.028 | [6] -0.547 | [7] 0.021 | [8] 0.005 | [9] -0.079 | [10] -0.205 | Nexturastat A 0.078 | vemurafenib -0.118 | [11] -0.082 | [12] 0.126 | givinostat -0.024 | barasertib -0.16

CCT5 (UniProt P48643)
inactive: IRAK-1-4 Inhibitor I 0.001 | ibrutinib -0.031 | [1] 0.004 | ralimetinib -0.009 | [2] -0.024 | [3] 0.019 | [4] -0.039 | pinometostat -0.027 | [5] 0.042 | [6] 0.002 | [7] 0.015 | [8] 0.01 | [9] 0.008 | [10] 0.046 | Nexturastat A -0.115 | vemurafenib 0.005 | [11] -0.006 | [12] -0.008 | givinostat -0.018 | barasertib -0.01

CBLB (UniProt Q13191)
inactive: IRAK-1-4 Inhibitor I 0.036 | ibrutinib 0.066 | [1] -0.102 | ralimetinib -0.107 | [2] -0.026 | [3] 0.003 | [4] 0.018 | pinometostat -0.022 | [5] -0.002 | [6] -0.032 | [7] 0.068 | [8] -0.012 | [9] -0.013 | [10] -0.005 | Nexturastat A 0.082 | vemurafenib -0.223 | [11] -0.048 | [12] -0.005 | givinostat -0.17 | barasertib -0.118

CCDC93 (UniProt Q567U6)
inactive: IRAK-1-4 Inhibitor I 0.016 | ibrutinib -0.036 | [1] -0.01 | ralimetinib 0.065 | [2] -0.032 | [3] -0.105 | [4] 0.014 | pinometostat 0.01 | [5] 0.009 | [6] 0.087 | [7] -0.024 | [8] -0.01 | [9] -0.015 | [10] 0.002 | Nexturastat A 0.151 | vemurafenib 0.026 | [11] -0.047 | [12] -0.018 | givinostat 0.042 | barasertib 0.107

CCDC117 (UniProt Q8IWD4)
inactive: IRAK-1-4 Inhibitor I 0.018 | ibrutinib -0.006 | [1] -0.06 | ralimetinib -0.16 | [2] 0.001 | [3] -0.034 | [4] 0.179 | pinometostat 0.063 | [5] 0.077 | [6] -0.089 | [7] -0.067 | [8] -0.013 | [9] -0.028 | [10] 0.027 | Nexturastat A 0.123 | vemurafenib 0 | [11] -0.013 | [12] 0.068 | givinostat 0.079 | barasertib -0.003

CAVIN2 (UniProt O95810)
inactive: IRAK-1-4 Inhibitor I -0.029 | ibrutinib 0.033 | [1] -0.018 | ralimetinib 0.113 | [2] 0 | [3] -0.203 | [4] 0.082 | pinometostat 0.156 | [5] 0.057 | [6] -0.293 | [7] 0.03 | [8] 0 | [9] -0.035 | [10] -0.06 | Nexturastat A 0.155 | vemurafenib -0.031 | [11] -0.028 | [12] 0.039 | givinostat 0.015 | barasertib -0.043

CD97 (UniProt P48960)
inactive: IRAK-1-4 Inhibitor I 0.006 | ibrutinib 0.045 | [1] -0.027 | ralimetinib -0.019 | [2] -0.022 | [3] 0.023 | [4] 0.044 | pinometostat -0.101 | [5] 0.015 | [6] 0.037 | [7] -0.028 | [8] -0.045 | [9] -0.009 | [10] 0.03 | Nexturastat A -0.038 | vemurafenib 0.021 | [11] -0.023 | [12] -0.046 | givinostat -0.131 | barasertib -0.026

CD320 (UniProt Q9NPF0)
inactive: IRAK-1-4 Inhibitor I -0.018 | ibrutinib 0.015 | [1] -0.016 | ralimetinib -0.05 | [2] 0.019 | [3] -0.012 | [4] 0.006 | pinometostat -0.031 | [5] -0.025 | [6] -0.08 | [7] 0.037 | [8] 0.025 | [9] 0.003 | [10] 0.036 | Nexturastat A -0.161 | vemurafenib -0.031 | [11] -0.017 | [12] -0.03 | givinostat -0.045 | barasertib 0.012

CCPG1 isoform 5 (UniProt Q9ULG6)
inactive: IRAK-1-4 Inhibitor I 0.004 | ibrutinib -0.048 | [1] -0.018 | ralimetinib 0.056 | [2] 0.051 | [3] -0.042 | [4] 0.09 | pinometostat 0.175 | [5] 0.042 | [6] -0.125 | [7] -0.034 | [8] -0.032 | [9] -0.054 | [10] -0.063 | Nexturastat A 0.201 | vemurafenib -0.059 | [11] -0.069 | [12] -0.004 | givinostat 0.014 | barasertib -0.008

CCDC51 (UniProt Q96ER9)
inactive: IRAK-1-4 Inhibitor I 0.058 | ibrutinib 0.038 | [1] -0.051 | ralimetinib -0.03 | [2] -0.167 | [3] -0.036 | [4] -0.062 | pinometostat 0.002 | [5] -0.006 | [6] 0.005 | [7] 0.122 | [8] -0.007 | [9] 0.08 | [10] 0.061 | Nexturastat A 0.02 | vemurafenib 0.052 | [11] 0.106 | [12] -0.03 | givinostat 0 | barasertib 0.025

CDC27 isoform 2 (UniProt P30260)
inactive: IRAK-1-4 Inhibitor I -0.017 | ibrutinib -0.008 | [1] 0 | ralimetinib 0.04 | [2] 0.001 | [3] -0.026 | [4] 0.012 | pinometostat 0.075 | [5] -0.027 | [6] -0.073 | [7] -0.006 | [8] -0.008 | [9] -0.013 | [10] -0.018 | Nexturastat A 0.009 | vemurafenib -0.008 | [11] 0.042 | [12] 0.019 | givinostat 0.029 | barasertib -0.014

CCT4 (UniProt P50991)
inactive: IRAK-1-4 Inhibitor I -0.001 | ibrutinib -0.038 | [1] 0.005 | ralimetinib 0.011 | [2] -0.044 | [3] 0.007 | [4] -0.048 | pinometostat -0.026 | [5] 0.052 | [6] 0.03 | [7] 0.056 | [8] 0.007 | [9] 0.071 | [10] 0.015 | Nexturastat A -0.138 | vemurafenib 0.016 | [11] 0.128 | [12] 0.031 | givinostat -0.049 | barasertib -0.022

Two successive entries out of the list so far, for reference:
CCPG1 isoform 5 (UniProt Q9ULG6)
inactive: IRAK-1-4 Inhibitor I 0.004 | ibrutinib -0.048 | [1] -0.018 | ralimetinib 0.056 | [2] 0.051 | [3] -0.042 | [4] 0.09 | pinometostat 0.175 | [5] 0.042 | [6] -0.125 | [7] -0.034 | [8] -0.032 | [9] -0.054 | [10] -0.063 | Nexturastat A 0.201 | vemurafenib -0.059 | [11] -0.069 | [12] -0.004 | givinostat 0.014 | barasertib -0.008

CCDC51 (UniProt Q96ER9)
inactive: IRAK-1-4 Inhibitor I 0.058 | ibrutinib 0.038 | [1] -0.051 | ralimetinib -0.03 | [2] -0.167 | [3] -0.036 | [4] -0.062 | pinometostat 0.002 | [5] -0.006 | [6] 0.005 | [7] 0.122 | [8] -0.007 | [9] 0.08 | [10] 0.061 | Nexturastat A 0.02 | vemurafenib 0.052 | [11] 0.106 | [12] -0.03 | givinostat 0 | barasertib 0.025

(further entries)

CCDC88A (UniProt Q3V6T2)
inactive: IRAK-1-4 Inhibitor I -0.051 | ibrutinib -0.227 | [1] -0.152 | ralimetinib 0.094 | [2] -0.016 | [3] -0.201 | [4] 0.088 | pinometostat 0.076 | [5] 0.241 | [6] 0.023 | [7] -0.274 | [8] -0.13 | [9] 0.016 | [10] 0.031 | Nexturastat A -0.027 | vemurafenib 0.045 | [11] 0 | [12] -0.113 | givinostat 0.132 | barasertib 0.027
